PubChem BioAssay AID504793, Drosophila RNAi Screening Center – 2011
Aim: 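Whole-genome screen for parts of the DNA damage checkpoint at G2/M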 (primary screen). Cells: Drosophila S2R+ cells. Reagent: long dsRNA against Drosophila genes, about 0.25 µg dsRNA per well. Time to read-out: 4 days of dsRNA, then 4 hours of drug before read-out. Challenge: doxorubicin 0.5 µM for 4 hours to cause double-strand breaks, in cells also given a low, harmless dose of dsRNA against nbs to sensitise the assay. Measurement: 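Per-well count of mitotic cells stained for phospho-histone H3 after doxorubicin exposure, used as mitotic index; counts are raw and not normalised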. Reading the numbers: mitotic cells: higher = more cells in mitosis, weaker G2 arrest. Active means: 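Genes are called active only when high mitotic counts were reproduced with independent dsRNAs and mitosis was checked for delay without damage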. Calls: active = confirmed in follow-up tests; inactive = not confirmed.
The screen tested about 23,000 reagents; below is a random part of those with a known target gene and a result. Of all reagents, 62 (0.27%) were called active. 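Calls come from follow-up tests whose scores are not deposited, so confirmed genes may have low counts here; counts are not normalised per plate.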 Raw values are not corrected between plates. Names joined by + are all predicted targets of the reagent.

no.	Target gene	amplicon	mitotic cells, replicate 1	outcome
1	CG17660 (GeneID 33347)	DRSC00513	2	inactive
2	Arfrp1 (GeneID 31841)	DRSC18417	6	inactive
3	eIF2Bbeta (GeneID 31256)	DRSC18465	10	inactive
4	eIF2Bbeta (GeneID 31256)	DRSC28495	3	inactive
5	Smg6 (GeneID 42994)	DRSC16029	10	inactive
6	Smg6 (GeneID 42994)	DRSC27703	1	inactive
7	CG30286 (GeneID 246529)	DRSC04070	8	inactive
8	kl-2 (GeneID 3355181)	DRSC21136	7	inactive
9	Irk1 (GeneID 42742)	DRSC16106	7	inactive
10	TotA (GeneID 44121)	DRSC13448	9	inactive
11	Arfip (GeneID 41353)	DRSC15179	5	inactive
12	Arfip (GeneID 41353)	DRSC27068	2	inactive
13	p24-1 (GeneID 32140)	DRSC19827	19	inactive
14	p24-1 (GeneID 32140)	DRSC26718	5	inactive
15	PH4alphaNE1 (GeneID 43625)	DRSC16546	3	inactive
16	PH4alphaNE1 (GeneID 43625)	DRSC26942	5	inactive
17	HIPP1 (GeneID 40302)	DRSC11748	4	inactive
18	HIPP1 (GeneID 40302)	DRSC27992	12	inactive
19	CG11162 (GeneID 32325)	DRSC19391	12	inactive
20	CG11162 (GeneID 32325)	DRSC22538	12	inactive
21	Vha100-2 (GeneID 42216)	DRSC14152	7	inactive
22	Vha100-2 (GeneID 42216)	DRSC29227	7	inactive
23	CG13144 (GeneID 34444)	DRSC02241	4	inactive
24	robo2 (GeneID 44522)	DRSC00377	2	inactive
25	robo2 (GeneID 44522)	DRSC00378	8	inactive
26	robo2 (GeneID 44522)	DRSC00686	5	inactive
27	robo2 (GeneID 44522)	DRSC00691	13	inactive
28	Cyp6d5 (GeneID 41706)	DRSC16634	7	inactive
29	Cyp6d5 (GeneID 41706)	DRSC29717	13	inactive
30	Sec31 (GeneID 35877)	DRSC07131	4	inactive
31	Sec31 (GeneID 35877)	DRSC27091	12	inactive
32	CG12054 (GeneID 43694)	DRSC23137	13	inactive
33	Syx1A (GeneID 42854)	DRSC15359	11	inactive
34	Syx1A (GeneID 42854)	DRSC21554	9	inactive
35	CG6785 (GeneID 34620)	DRSC02993	3	inactive
36	CG6785 (GeneID 34620)	DRSC25446	7	inactive
37	CG17776 (GeneID 50373)	DRSC18136	2	inactive
38	CG17776 (GeneID 50373)	DRSC27477	8	inactive
39	Alas (GeneID 37815)	DRSC04044	4	inactive
40	Tcs6 + PIG-P	DRSC13742	12	inactive
41	Tcs6 + PIG-P	DRSC14893	11	inactive
42	CG13720 (GeneID 38557)	DRSC08329	7	inactive
43	CG13720 (GeneID 38557)	DRSC23787	7	inactive
44	Csp (GeneID 40459)	DRSC11860	2	inactive
45	CG31522 (GeneID 40567)	DRSC12005	10	inactive
46	CG31522 (GeneID 40567)	DRSC29792	9	inactive
47	Vamp7 (GeneID 36015)	DRSC06599	5	inactive
48	tweek (GeneID 35026)	DRSC02433	5	inactive
49	tweek (GeneID 35026)	DRSC02434	3	inactive
50	tweek (GeneID 35026)	DRSC23133	20	inactive
51	Idh (GeneID 44291)	DRSC10779	4	inactive
52	Prdm13 (GeneID 38713)	DRSC09970	8	inactive
53	gammaSnap1 (GeneID 37842)	DRSC04686	4	inactive
54	gammaSnap1 (GeneID 37842)	DRSC28381	4	inactive
55	Sgs5bis (GeneID 42113)	DRSC16263	3	inactive
56	CG15393 (retired record) (GeneID 33433)	DRSC00407	12	inactive
57	CG15393 (retired record) (GeneID 33433)	DRSC27448	7	inactive
58	ETHR (GeneID 42523)	DRSC15915	11	inactive
59	ETHR (GeneID 42523)	DRSC29606	7	inactive
60	CG33958 (GeneID 37088)	DRSC06472	4	inactive
61	CG33958 (GeneID 37088)	DRSC06944	6	inactive
62	CG33958 (GeneID 37088)	DRSC29635	5	inactive
63	Ir94h (GeneID 42769)	DRSC15232	5	inactive
64	SMC3 (GeneID 32627)	DRSC20227	9	inactive
65	CG5883 (GeneID 39352)	DRSC10552	3	inactive
66	Pif1A + Pif1B	DRSC14142	5	inactive
67	Pif1A + Pif1B	DRSC14380	3	inactive
68	Pif1A + Pif1B	DRSC14381	3	inactive
69	Ccdc85 (GeneID 33509)	DRSC23173	2	inactive
70	wor (GeneID 34906)	DRSC03637	5	inactive
71	wor (GeneID 34906)	DRSC25651	5	inactive
72	CR32745 (GeneID 5740857)	DRSC17442	6	inactive
73	CR32745 (GeneID 5740857)	DRSC29689	5	inactive
74	Ugt36A1 (GeneID 44058)	DRSC00748	6	inactive
75	Ugt36A1 (GeneID 44058)	DRSC29161	7	inactive
76	CG2076 (GeneID 32041)	DRSC19832	9	inactive
77	CG2076 (GeneID 32041)	DRSC27047	5	inactive
78	CG13244 (GeneID 34940)	DRSC21642	12	inactive
79	PIG-O (GeneID 37118)	DRSC06123	6	inactive
80	Pka-C1 (GeneID 34284)	DRSC03399	5	inactive
81	Pka-C1 (GeneID 34284)	DRSC23314	8	inactive
82	Pka-C1 (GeneID 34284)	DRSC28268	7	inactive
83	Upf1 (GeneID 32153)	DRSC19667	8	inactive
84	CG16976 (retired record) (GeneID 38336)	DRSC08499	7	inactive
85	CG16976 (retired record) (GeneID 38336)	DRSC23483	4	inactive
86	CG16976 (retired record) (GeneID 38336)	DRSC25709	4	inactive
87	lqfR (GeneID 42632)	DRSC14703	7	inactive
88	lqfR (GeneID 42632)	DRSC14704	6	inactive
89	lqfR (GeneID 42632)	DRSC25247	8	inactive
90	CG15124 (GeneID 37256)	DRSC06546	6	inactive
91	tll (GeneID 43656)	DRSC17085	5	inactive
92	tll (GeneID 43656)	DRSC28584	3	inactive
93	CG31125 (GeneID 318599)	DRSC13684	24	inactive
94	CG31125 (GeneID 318599)	DRSC25124	6	inactive
95	CG7888 (GeneID 39232)	DRSC10926	4	inactive
96	betaNACtes3 (GeneID 326224)	DRSC20183	12	inactive
97	UbcE2H (GeneID 31728)	DRSC18221	5	inactive
98	UbcE2H (GeneID 31728)	DRSC27123	6	inactive
99	CG12784 (GeneID 41903)	DRSC14539	4	inactive
100	Ppr-Y (GeneID 3355180)	DRSC20892	5	inactive
101	CG41520 (GeneID 5740294)	DRSC21102	11	inactive
102	Spn (GeneID 46194)	DRSC07986	11	inactive
103	Spn (GeneID 46194)	DRSC08490	5	inactive
104	Spn (GeneID 46194)	DRSC08491	9	inactive
105	CG3634 (GeneID 40301)	DRSC11747	6	inactive
106	CG32984 (GeneID 34218)	DRSC21602	13	inactive
107	CG32984 (GeneID 34218)	DRSC29257	6	inactive
108	Os-C (GeneID 40942)	DRSC16778	11	inactive
109	Os-C (GeneID 40942)	DRSC27993	5	inactive
110	CG31624 (GeneID 35393)	DRSC02617	13	inactive
